No constants are given. Whether binding was seen depends on the method and setting. In cells and extracts the contact can be indirect. A yes stands for co-enrichment or nearness to the bait. Other partners may have been found.
B1: KIFC1 (protein, UniProt Q9BW19 1-673)
chain: MDPQRSPLLEVKGNIELKRPLIKAPSQLPLSGSRLKRRPDQMEDGLEPEKKRTRGLGATTKITTSHPRVPSLTTVPQTQGQTTAQKVSKKTGPRCSTAIATGLKNQKPVPAVPVQKSGTSGVPPMAGGKKPSKRPAWDLKGQLCDLNAELKRCRERTQTLDQENQQLQDQLRDAQQQVKALGTERTTLEGHLAKVQAQAEQGQQELKNLRACVLELEERLSTQEGLVQELQKKQVELQEERRGLMSQLEEKERRLQTSEAALSSSQAEVASLRQETVAQAALLTEREERLHGLEMERRRLHNQLQELKGNIRVFCRVRPVLPGEPTPPPGLLLFPSGPGGPSDPPTRLSLSRSDERRGTLSGAPAPPTRHDFSFDRVFPPGSGQDEVFEEIAMLVQSALDGYPVCIFAYGQTGSGKTFTMEGGPGGDPQLEGLIPRALRHLFSVAQELSGQGWTYSFVASYVEIYNETVRDLLATGTRKGQGGECEIRRAGPGSEELTVTNARYVPVSCEKEVDALLHLARQNRAVARTAQNERSSRSHSVFQLQISGEHSSRGLQCGAPLSLVDLAGSERLDPGLALGPGERERLRETQAINSSLSTLGLVIMALSNKESHVPYRNSKLTYLLQNSLGGSAKMLMFVNISPLEENVSESLNSLRFASKVNQCVIGTAQANRK
B2: RACGAP1 (protein, UniProt Q9H0H5 1-632)
chain: MDTMMLNVRNLFEQLVRRVEILSEGNEVQFIQLAKDFEDFRKKWQRTDHELGKYKDLLMKAETERSALDVKLKHARNQVDVEIKRRQRAEADCEKLERQIQLIREMLMCDTSGSIQLSEEQKSALAFLNRGQPSSSNAGNKRLSTIDESGSILSDISFDKTDESLDWDSSLVKTFKLKKREKRRSTSRQFVDGPPGPVKKTRSIGSAVDQGNESIVAKTTVTVPNDGGPIEAVSTIETVPYWTRSRRKTGTLQPWNSDSTLNSRQLEPRTETDSVGTPQSNGGMRLHDFVSKTVIKPESCVPCGKRIKFGKLSLKCRDCRVVSHPECRDRCPLPCIPTLIGTPVKIGEGMLADFVSQTSPMIPSIVVHCVNEIEQRGLTETGLYRISGCDRTVKELKEKFLRVKTVPLLSKVDDIHAICSLLKDFLRNLKEPLLTFRLNRAFMEAAEITDEDNSIAAMYQAVGELPQANRDTLAFLMIHLQRVAQSPHTKMDVANLAKVFGPTIVAHAVPNPDPVTMLQDIKRQPKVVERLLSLPLEYWSQFMMVEQENIDPLHVIENSNAFSTPQTPDIKVSLLGPVTTPEHQLLKTPSSSSLSQRVRSTLTKNTPRFGSKSKSATNLGRQGNFFASPMLK
B3: ARHGAP11A (protein, UniProt Q6P4F7 1-1023)
chain: MWDQRLVRLALLQHLRAFYGIKVKGVRGQCDRRRHETAATEIGGKIFGVPFNALPHSAVPEYGHIPSFLVDACTSLEDHIHTEGLFRKSGSVIRLKALKNKVDHGEGCLSSAPPCDIAGLLKQFFRELPEPILPADLHEALLKAQQLGTEEKNKATLLLSCLLADHTVHVLRYFFNFLRNVSLRSSENKMDSSNLAVIFAPNLLQTSEGHEKMSSNTEKKLRLQAAVVQTLIDYASDIGRVPDFILEKIPAMLGIDGLCATPSLEGFEEGEYETPGEYKRKRRQSVGDFVSGALNKFKPNRTPSITPQEERIAQLSESPVILTPNAKRTLPVDSSHGFSSKKRKSIKHNFNFELLPSNLFNSSSTPVSVHIDTSSEGSSQSSLSPVLIGGNHLITAGVPRRSKRIAGKKVCRVESGKAGCFSPKISHKEKVRRSLRLKFNLGKNGREVNGCSGVNRYESVGWRLANQQSLKNRIESVKTGLLFSPDVDEKLPKKGSEKISKSEETLLTPERLVGTNYRMSWTGPNNSSFQEVDANEASSMVENLEVENSLEPDIMVEKSPATSCELTPSNLNNKHNSNITSSPLSGDENNMTKETLVKVQKAFSESGSNLHALMNQRQSSVTNVGKVKLTEPSYLEDSPEENLFETNDLTIVESKEKYEHHTGKGEKCFSERDFSPLQTQTFNRETTIKCYSTQMKMEHEKDIHSNMPKDYLSKQEFSSDEEIKKQQSPKDKLNNKLKENENMMEGNLPKCAAHSKDEARSSFSQQSTCVVTNLSKPRPMRIAKQQSLETCEKTVSESSQMTEHRKVSDHIQWFNKLSLNEPNRIKVKSPLKFQRTPVRQSVRRINSLLEYSRQPTGHKLASLGDTASPLVKSVSCDGALSSCIESASKDSSVSCIKSGPKEQKSMSCEESNIGAISKSSMELPSKSFLKMRKHPDSVNASLRSTTVYKQKILSDGQVKVPLDDLTNHDIVKPVVNNNMGISSGINNRVLRRPSERGRAWYKGSPKHPIGKTQLLPTSKPVDL
B4: MAU2 sister chromatid cohesion factor (protein, UniProt Q9Y6X3 1-613)
chain: MAAQAAAAAQAAAAQAAQAEAADSWYLALLGFAEHFRTSSPPKIRLCVHCLQAVFPFKPPQRIEARTHLQLGSVLYHHTKNSEQARSHLEKAWLISQQIPQFEDVKFEAASLLSELYCQENSVDAAKPLLRKAIQISQQTPYWHCRLLFQLAQLHTLEKDLVSACDLLGVGAEYARVVGSEYTRALFLLSKGMLLLMERKLQEVHPLLTLCGQIVENWQGNPIQKESLRVFFLVLQVTHYLDAGQVKSVKPCLKQLQQCIQTISTLHDDEILPSNPADLFHWLPKEHMCVLVYLVTVMHSMQAGYLEKAQKYTDKALMQLEKLKMLDCSPILSSFQVILLEHIIMCRLVTGHKATALQEISQVCQLCQQSPRLFSNHAAQLHTLLGLYCVSVNCMDNAEAQFTTALRLTNHQELWAFIVTNLASVYIREGNRHQEVLYSLLERINPDHSFPVSSHCLRAAAFYVRGLFSFFQGRYNEAKRFLRETLKMSNAEDLNRLTACSLVLLGHIFYVLGNHRESNNMVVPAMQLASKIPDMSVQLWSSALLRDLNKACGNAMDAHEAAQMHQNFSQQLLQDHIEACSLPEHNLITWTDGPPPVQFQAQNGPNTSLASLL
B5: ribosome biogenesis regulator BYSL (protein, UniProt Q13895 1-437)
chain: MPKFKAARGVGGQEKHAPLADQILAGNAVRAGVREKRRGRGTGEAEEEYVGPRLSRRILQQARQQQEELEAEHGTGDKPAAPRERTTRLGPRMPQDGSDDEDEEWPTLEKAATMTAAGHHAEVVVDPEDERAIEMFMNKNPPARRTLADIIMEKLTEKQTEVETVMSEVSGFPMPQLDPRVLEVYRGVREVLSKYRSGKLPKAFKIIPALSNWEQILYVTEPEAWTAAAMYQATRIFASNLKERMAQRFYNLVLLPRVRDDVAEYKRLNFHLYMALKKALFKPGAWFKGILIPLCESGTCTLREAIIVGSIITKCSIPVLHSSAAMLKIAEMEYSGANSIFLRLLLDKKYALPYRVLDALVFHFLGFRTEKRELPVLWHQCLLTLVQRYKADLATDQKEALLELLRLQPHPQLSPEIRRELQSAVPRDVEDVPITVE
B6: Rb transcriptional corepressor 1 (RBL1) (protein, UniProt P28749 1-1068)
chain: MFEDKPHAEGAAVVAAAGEALQALCQELNLDEGSAAEALDDFTAIRGNYSLEGEVTHWLACSLYVACRKSIIPTVGKGIMEGNCVSLTRILRSAKLSLIQFFSKMKKWMDMSNLPQEFRERIERLERNFEVSTVIFKKYEPIFLDIFQNPYEEPPKLPRSRKQRRIPCSVKDLFNFCWTLFVYTKGNFRMIGDDLVNSYHLLLCCLDLIFANAIMCPNRQDLLNPSFKGLPSDFHTADFTASEEPPCIIAVLCELHDGLLVEAKGIKEHYFKPYISKLFDRKILKGECLLDLSSFTDNSKAVNKEYEEYVLTVGDFDERIFLGADAEEEIGTPRKFTRDTPLGKLTAQANVEYNLQQHFEKKRSFAPSTPLTGRRYLREKEAVITPVASATQSVSRLQSIVAGLKNAPSDQLINIFESCVRNPVENIMKILKGIGETFCQHYTQSTDEQPGSHIDFAVNRLKLAEILYYKILETVMVQETRRLHGMDMSVLLEQDIFHRSLMACCLEIVLFAYSSPRTFPWIIEVLNLQPFYFYKVIEVVIRSEEGLSRDMVKHLNSIEEQILESLAWSHDSALWEALQVSANKVPTCEEVIFPNNFETGNGGNVQGHLPLMPMSPLMHPRVKEVRTDSGSLRRDMQPLSPISVHERYSSPTAGSAKRRLFGEDPPKEMLMDKIITEGTKLKIAPSSSITAENVSILPGQTLLTMATAPVTGTTGHKVTIPLHGVANDAGEITLIPLSMNTNQESKVKSPVSLTAHSLIGASPKQTNLTKAQEVHSTGINRPKRTGSLALFYRKVYHLASVRLRDLCLKLDVSNELRRKIWTCFEFTLVHCPDLMKDRHLDQLLLCAFYIMAKVTKEERTFQEIMKSYRNQPQANSHVYRSVLLKSIPREVVAYNKNINDDFEMIDCDLEDATKTPDCSSGPVKEERGDLIKFYNTIYVGRVKSFALKYDLANQDHMMDAPPLSPFPHIKQQPGSPRRISQQHSIYISPHKNGSGLTPRSALLYKFNGSPSKSLKDINNMIRQGEQRTKKRVIAIDSDAESPAKRVCQENDDVLLKRLQDVVSERANH
B7: CCCTC-binding factor (CTCF) (protein, UniProt P49711 1-727)
chain: MEGDAVEAIVEESETFIKGKERKTYQRRREGGQEEDACHLPQNQTDGGEVVQDVNSSVQMVMMEQLDPTLLQMKTEVMEGTVAPEAEAAVDDTQIITLQVVNMEEQPINIGELQLVQVPVPVTVPVATTSVEELQGAYENEVSKEGLAESEPMICHTLPLPEGFQVVKVGANGEVETLEQGELPPQEDPSWQKDPDYQPPAKKTKKTKKSKLRYTEEGKDVDVSVYDFEEEQQEGLLSEVNAEKVVGNMKPPKPTKIKKKGVKKTFQCELCSYTCPRRSNLDRHMKSHTDERPHKCHLCGRAFRTVTLLRNHLNTHTGTRPHKCPDCDMAFVTSGELVRHRRYKHTHEKPFKCSMCDYASVEVSKLKRHIRSHTGERPFQCSLCSYASRDTYKLKRHMRTHSGEKPYECYICHARFTQSGTMKMHILQKHTENVAKFHCPHCDTVIARKSDLGVHLRKQHSYIEQGKKCRYCDAVFHERYALIQHQKSHKNEKRFKCDQCDYACRQERHMIMHKRTHTGEKPYACSHCDKTFRQKQLLDMHFKRYHDPNFVPAAFVCSKCGKTFTRRNTMARHADNCAGPDGVEGENGGETKKSKRGRKRKMRSKKEDSSDSENAEPDLDDNEDEEEPAVEIEPEPEPQPVTPAPPPAKKRRGRPPGRTNQPKQNQPTAIIQVEDQNTGAIENIIVEVKKEPDAEPAEGEEEEAQPAATDAPNGDLTPEMILSMMDR

Protein sequences, listed by entry. Tags and fused reporters are not part of them.
UniProt Q8IVV7: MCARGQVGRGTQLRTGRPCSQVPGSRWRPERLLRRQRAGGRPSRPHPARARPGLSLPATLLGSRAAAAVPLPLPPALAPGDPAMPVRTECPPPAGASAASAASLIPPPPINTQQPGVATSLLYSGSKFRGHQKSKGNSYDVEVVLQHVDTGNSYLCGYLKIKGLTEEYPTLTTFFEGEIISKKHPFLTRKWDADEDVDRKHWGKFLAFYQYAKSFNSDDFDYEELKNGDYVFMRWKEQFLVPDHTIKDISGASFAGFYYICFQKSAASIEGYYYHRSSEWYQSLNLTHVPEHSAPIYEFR

These binders were tested against BirA2-Flag-GID4 fusion protein (human) (UniProt Q8IVV7) (assay: proximity labelling; BioID2: BirA2-Flag-tagged bait in Flp-In T-REx HeLa cells, tetracycline 1 μg/ml and biotin 50 μM for 24 h, with or without MG132 (5 μM); biotinylated proteins on streptavidin beads, mass spectrometry, SAINT against BirA2-Flag-EGFP, BFDR ≤ 0.01).

| binding | Binder |
| --- | --- |
| binds | B1 |
| binds | B2 |
| binds | B3 |
| binds | B4 |
| binds | B5 |
| binds | B6 |
| binds | B7 |
